Measured values from the supplement of paper PMC4604168 (melanoma cell lines).
This is one part of the list. Repeats are few or missing, and single values can be far off.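 Cells were imaged in 1,536-well plates, and nuclei stained with an antibody against cleaved PARP were counted against all DNA-stained nuclei to give the apoptosis fraction. Screening doses were chosen to leave most cells alive, and resting and induced cleaved-PARP levels differ strongly between cell lines.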

Columns and labels:
Assay in all cases: cleaved PARP positive nuclei fraction relative to DMSO control; melanoma cells; higher = more apoptosis
Conditions in all cases: library dose: low library concentration; 72 h
MZ2-MEL = tested on: MZ2-MEL
MeWo = tested on: MeWo
RPMI7951 = tested on: RPMI7951
RVH-421 = tested on: RVH-421
SkMel28 = tested on: SkMel28
SkMel30 = tested on: SkMel30
SkMel5 = tested on: SkMel5
UACC257 = tested on: UACC257
UACC62 = tested on: UACC62
WM115 = tested on: WM115
WM1716 = tested on: WM1716
WM1745 = tested on: WM1745
WM3526 = tested on: WM3526
WM3619 = tested on: WM3619
WM451Lu = tested on: WM451Lu

For `O=S(=O)(c1ccccc1)N(CC(F)(F)F)c1ccc(C(O)(C(F)(F)F)C(F)(F)F)cc1` + COc1cc2ncnc(Nc3ccc(Oc4ccccc4)cc3)c2cc1OC [SrcI1] (first compound 1.4 µM, partner dose 2 µM), the “cleaved PARP positive nuclei fraction” value (MZ2-MEL) was 84.1%, the “cleaved PARP positive nuclei fraction” value (MeWo) was 109% and the “cleaved PARP positive nuclei fraction” value (RPMI7951) was 73.5%. For the same compound, the “cleaved PARP positive nuclei fraction” value (RVH-421) was 71.5%, the “cleaved PARP positive nuclei fraction” value (SkMel28) was 135% and the “cleaved PARP positive nuclei fraction” value (SkMel30) was 64.4%. The “cleaved PARP positive nuclei fraction” value (SkMel5) was 31.8%, the “cleaved PARP positive nuclei fraction” value (UACC257) was 133% and the “cleaved PARP positive nuclei fraction” value (UACC62) was 110%. The “cleaved PARP positive nuclei fraction” value (WM115) was 69.7%, the “cleaved PARP positive nuclei fraction” value (WM1716) was 97.1% and the “cleaved PARP positive nuclei fraction” value (WM1745) was 128%. The “cleaved PARP positive nuclei fraction” value (WM3526) was 69.5%, the “cleaved PARP positive nuclei fraction” value (WM3619) was 98.9% and the “cleaved PARP positive nuclei fraction” value (WM451Lu) was 61.3%.

For `O=C(O)c1ccc(-c2c[nH]c3ncc(-c4ccccc4)cc23)cc1C1CCCC1` + COc1ccc(COc2ccc(Cc3cnc(N)nc3N)cc2OC)cc1 [GW2580] (first compound 0.16 µM, partner dose 1 µM), the “cleaved PARP positive nuclei fraction” value (MZ2-MEL) was 82.9%, the “cleaved PARP positive nuclei fraction” value (MeWo) was 73.3% and the “cleaved PARP positive nuclei fraction” value (RPMI7951) was 44.3%. For the same compound, the “cleaved PARP positive nuclei fraction” value (RVH-421) was 53%, the “cleaved PARP positive nuclei fraction” value (SkMel28) was 174% and the “cleaved PARP positive nuclei fraction” value (SkMel30) was 161%. The “cleaved PARP positive nuclei fraction” value (SkMel5) was 60.1%, the “cleaved PARP positive nuclei fraction” value (UACC257) was 51.8% and the “cleaved PARP positive nuclei fraction” value (UACC62) was 75.1%. The “cleaved PARP positive nuclei fraction” value (WM115) was 134%, the “cleaved PARP positive nuclei fraction” value (WM1716) was 46.3% and the “cleaved PARP positive nuclei fraction” value (WM1745) was 111%. The “cleaved PARP positive nuclei fraction” value (WM3526) was 145%, the “cleaved PARP positive nuclei fraction” value (WM3619) was 89.1% and the “cleaved PARP positive nuclei fraction” value (WM451Lu) was 48.9%.

`CCN(CC)CCCCNc1ncc2cc(-c3cc(OC)cc(OC)c3)c(NC(=O)NC(C)(C)C)nc2n1` + COc1cc2ncnc(Nc3ccc(Oc4ccccc4)cc3)c2cc1OC [SrcI1] (first compound 0.1 µM, partner dose 2 µM) was tested, and the “cleaved PARP positive nuclei fraction” value (MZ2-MEL) was 134%, the “cleaved PARP positive nuclei fraction” value (MeWo) was 118% and the “cleaved PARP positive nuclei fraction” value (RPMI7951) was 79.3%. The “cleaved PARP positive nuclei fraction” value (RVH-421) was 79.2%, the “cleaved PARP positive nuclei fraction” value (SkMel28) was 123% and the “cleaved PARP positive nuclei fraction” value (SkMel30) was 257%. The “cleaved PARP positive nuclei fraction” value (SkMel5) was 55.4%, the “cleaved PARP positive nuclei fraction” value (UACC257) was 17.2% and the “cleaved PARP positive nuclei fraction” value (UACC62) was 77.3%. The “cleaved PARP positive nuclei fraction” value (WM115) was 62.7%, the “cleaved PARP positive nuclei fraction” value (WM1716) was 72.4% and the “cleaved PARP positive nuclei fraction” value (WM1745) was 226%. The “cleaved PARP positive nuclei fraction” value (WM3526) was 67.6%, the “cleaved PARP positive nuclei fraction” value (WM3619) was 111% and the “cleaved PARP positive nuclei fraction” value (WM451Lu) was 100%.

`CCN(CC)CCCCNc1ncc2cc(-c3cc(OC)cc(OC)c3)c(NC(=O)NC(C)(C)C)nc2n1` + Cc1cc([N+](=O)[O-])ccc1NS(=O)(=O)c1cc(Cl)ccc1Cl [FH535] (first compound 0.1 µM, partner dose 1 µM) was tested, and the “cleaved PARP positive nuclei fraction” value (MZ2-MEL) was 84.5%, the “cleaved PARP positive nuclei fraction” value (MeWo) was 122% and the “cleaved PARP positive nuclei fraction” value (RPMI7951) was 77.6%. For the same compound, the “cleaved PARP positive nuclei fraction” value (RVH-421) was 87.1%, the “cleaved PARP positive nuclei fraction” value (SkMel28) was 158% and the “cleaved PARP positive nuclei fraction” value (SkMel30) was 219%. For the same compound, the “cleaved PARP positive nuclei fraction” value (SkMel5) was 316%, the “cleaved PARP positive nuclei fraction” value (UACC257) was 192% and the “cleaved PARP positive nuclei fraction” value (UACC62) was 45.7%. For the same compound, the “cleaved PARP positive nuclei fraction” value (WM115) was 162%, the “cleaved PARP positive nuclei fraction” value (WM1716) was 82.6% and the “cleaved PARP positive nuclei fraction” value (WM1745) was 116%. For the same compound, the “cleaved PARP positive nuclei fraction” value (WM3526) was 72.9%, the “cleaved PARP positive nuclei fraction” value (WM3619) was 116% and the “cleaved PARP positive nuclei fraction” value (WM451Lu) was 125%.

With `N#Cc1c(O)c2c(-c3ccc(-c4ccccc4O)cc3)csc2[nH]c1=O` + O=c1cc(-c2cccc3c2Sc2ccccc2S3)oc(N2CCOCC2)c1 [KU55933] (first compound 2 µM, partner dose 1 µM) the “cleaved PARP positive nuclei fraction” value (MZ2-MEL) was 128%, the “cleaved PARP positive nuclei fraction” value (MeWo) was 163% and the “cleaved PARP positive nuclei fraction” value (RPMI7951) was 77%. The “cleaved PARP positive nuclei fraction” value (RVH-421) was 103%, the “cleaved PARP positive nuclei fraction” value (SkMel28) was 160% and the “cleaved PARP positive nuclei fraction” value (SkMel30) was 1270%. The “cleaved PARP positive nuclei fraction” value (SkMel5) was 42%, the “cleaved PARP positive nuclei fraction” value (UACC257) was 102% and the “cleaved PARP positive nuclei fraction” value (UACC62) was 269%. The “cleaved PARP positive nuclei fraction” value (WM115) was 64.1%, the “cleaved PARP positive nuclei fraction” value (WM1716) was 192% and the “cleaved PARP positive nuclei fraction” value (WM1745) was 106%. For the same compound, the “cleaved PARP positive nuclei fraction” value (WM3526) was 66.6%, the “cleaved PARP positive nuclei fraction” value (WM3619) was 80.1% and the “cleaved PARP positive nuclei fraction” value (WM451Lu) was 130%.

With `N#Cc1c(O)c2c(-c3ccc(-c4ccccc4O)cc3)csc2[nH]c1=O` + COc1cc(N2CCC(N3CCN(C)CC3)CC2)ccc1Nc1ncc(Cl)c(Nc2ccccc2S(=O)(=O)C(C)C)n1 [NVP-TAE684] (first compound 2 µM, partner dose 0.08 µM) the “cleaved PARP positive nuclei fraction” value (MZ2-MEL) was 178%, the “cleaved PARP positive nuclei fraction” value (MeWo) was 26.1% and the “cleaved PARP positive nuclei fraction” value (RPMI7951) was 20.1%. The “cleaved PARP positive nuclei fraction” value (RVH-421) was 270%, the “cleaved PARP positive nuclei fraction” value (SkMel28) was 203% and the “cleaved PARP positive nuclei fraction” value (SkMel30) was 11.6%. For the same compound, the “cleaved PARP positive nuclei fraction” value (SkMel5) was 150%, the “cleaved PARP positive nuclei fraction” value (UACC257) was 86.5% and the “cleaved PARP positive nuclei fraction” value (UACC62) was 40.2%. The “cleaved PARP positive nuclei fraction” value (WM115) was 60.4%, the “cleaved PARP positive nuclei fraction” value (WM1716) was 194% and the “cleaved PARP positive nuclei fraction” value (WM1745) was 98.1%. For the same compound, the “cleaved PARP positive nuclei fraction” value (WM3526) was 121%, the “cleaved PARP positive nuclei fraction” value (WM3619) was 149% and the “cleaved PARP positive nuclei fraction” value (WM451Lu) was 86%.

In the case of `O=C(Nc1ccccc1)c1cc([N+](=O)[O-])ccc1Cl` + CCN(CC)CCCCNc1ncc2cc(-c3cc(OC)cc(OC)c3)c(NC(=O)NC(C)(C)C)nc2n1 [PD173074] (first compound 2 µM, partner dose 0.1 µM), the “cleaved PARP positive nuclei fraction” value (MZ2-MEL) is reported as 120%, the “cleaved PARP positive nuclei fraction” value (MeWo) is reported as 50.6% and the “cleaved PARP positive nuclei fraction” value (RPMI7951) is reported as 121%. For the same compound, the “cleaved PARP positive nuclei fraction” value (RVH-421) was 41.8%, the “cleaved PARP positive nuclei fraction” value (SkMel28) was 100% and the “cleaved PARP positive nuclei fraction” value (SkMel30) was 111%. The “cleaved PARP positive nuclei fraction” value (SkMel5) was 62.2%, the “cleaved PARP positive nuclei fraction” value (UACC257) was 30% and the “cleaved PARP positive nuclei fraction” value (UACC62) was 81.4%. The “cleaved PARP positive nuclei fraction” value (WM115) was 92.6%, the “cleaved PARP positive nuclei fraction” value (WM1716) was 42.7% and the “cleaved PARP positive nuclei fraction” value (WM1745) was 92.9%. For the same compound, the “cleaved PARP positive nuclei fraction” value (WM3526) was 53.3%, the “cleaved PARP positive nuclei fraction” value (WM3619) was 91.3% and the “cleaved PARP positive nuclei fraction” value (WM451Lu) was 45.8%.

With `COC(=O)c1sccc1S(=O)(=O)Nc1ccc(Nc2ccccc2)cc1OC` + COc1cc(N2CCC(N3CCN(C)CC3)CC2)ccc1Nc1ncc(Cl)c(Nc2ccccc2S(=O)(=O)C(C)C)n1 [NVP-TAE684] (first compound 1 µM, partner dose 0.08 µM) the “cleaved PARP positive nuclei fraction” value (MZ2-MEL) was 116%, the “cleaved PARP positive nuclei fraction” value (MeWo) was 28.7% and the “cleaved PARP positive nuclei fraction” value (RPMI7951) was 89.3%. For the same compound, the “cleaved PARP positive nuclei fraction” value (RVH-421) was 32.8%, the “cleaved PARP positive nuclei fraction” value (SkMel28) was 244% and the “cleaved PARP positive nuclei fraction” value (SkMel30) was 16.4%. The “cleaved PARP positive nuclei fraction” value (SkMel5) was 76%, the “cleaved PARP positive nuclei fraction” value (UACC257) was 191% and the “cleaved PARP positive nuclei fraction” value (UACC62) was 184%. The “cleaved PARP positive nuclei fraction” value (WM115) was 148%, the “cleaved PARP positive nuclei fraction” value (WM1716) was 65.9% and the “cleaved PARP positive nuclei fraction” value (WM1745) was 115%. The “cleaved PARP positive nuclei fraction” value (WM3526) was 65.1%, the “cleaved PARP positive nuclei fraction” value (WM3619) was 75.5% and the “cleaved PARP positive nuclei fraction” value (WM451Lu) was 53%.

For `CN(NC(=O)CC(=O)NN(C)C(=S)c1ccccc1)C(=S)c1ccccc1` + Cc1cc([N+](=O)[O-])ccc1NS(=O)(=O)c1cc(Cl)ccc1Cl [FH535] (first compound 0.006 µM, partner dose 1 µM), the “cleaved PARP positive nuclei fraction” value (MZ2-MEL) was 53.4%, the “cleaved PARP positive nuclei fraction” value (MeWo) was 47.2% and the “cleaved PARP positive nuclei fraction” value (RPMI7951) was 74.2%. The “cleaved PARP positive nuclei fraction” value (RVH-421) was 52.4%, the “cleaved PARP positive nuclei fraction” value (SkMel28) was 153% and the “cleaved PARP positive nuclei fraction” value (SkMel30) was 26.2%. The “cleaved PARP positive nuclei fraction” value (SkMel5) was 91.3%, the “cleaved PARP positive nuclei fraction” value (UACC257) was 108% and the “cleaved PARP positive nuclei fraction” value (UACC62) was 86.2%. The “cleaved PARP positive nuclei fraction” value (WM115) was 126%, the “cleaved PARP positive nuclei fraction” value (WM1716) was 139% and the “cleaved PARP positive nuclei fraction” value (WM1745) was 281%. For the same compound, the “cleaved PARP positive nuclei fraction” value (WM3526) was 58.4%, the “cleaved PARP positive nuclei fraction” value (WM3619) was 224% and the “cleaved PARP positive nuclei fraction” value (WM451Lu) was 204%.
